# According to patent US20080025918A1, “Invisible light fluorescent platelets for intraoperative detection of vascular thrombosis” (Beth Israel Deaconess Medical Center, Inc., priority 2006, published 2008):
# Tested on: washed human platelets
# Assay: Uptake (loading) of IR-786 into washed platelets
# Assay type: cell-based
smiles,measurement,setting,value
CN1C(=CC=C2CCCC(C=CC3=[N+](C)c4ccccc4C3(C)C)=C2Cl)C(C)(C)c2ccccc21.[O-][Cl+3]([O-])([O-])[O-] [IR-786],intracellular concentration,,approximately 700 μM
same,molecules of fluorophore per platelet,,approximately 3×10^6 molecules
same,IR-786 incorporated per platelet,2 μM IR-786,approximately 6 attomoles
same,molecules of IR-786 per platelet,2 μM IR-786,"roughly 3,600,000 molecules"
same,extracellular concentration up to which loading of platelets is linear,30 min at RT,≤ 2.5 µM
same,fluorescence remaining in the supernatant,all concentrations tested,only trace fluorescence
same,incubation time of maximal incorporation into platelets,"room temperature, 2 μM extracellular IR-786",30 min
